Values from PubChem BioAssay AID493246 (Drosophila RNAi Screening Center, 2011)
In all, the deposit lists about 21,000 reagents; below is a random part of those that have a named target and a result. Of all reagents, 429 (2%) were called active. 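Values are raw and not normalised between plates; calls rest on per-plate z-scores that were not deposited.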 Reagents against one gene are numbered here. The record does not give: the amount of reagent, the time to read-out.

- Purpose: 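Genome-wide search for dsRNAs that reduce cell number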 (primary screen)
- Cells: Drosophila Kc and S2R+ cells
- Knock-down reagent: long dsRNA against Drosophila genes
- Measured: 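Cell number per well after knock-down, printed as raw plate values; calls were based on per-plate z-scores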
- Reading the numbers: Kc cell number and S2R+ cell number: higher = more cells remaining
- Hit rule: 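Counted as a hit if cell number falls by a z-score of at least 3 within its plate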

| predicted target | reagent no. | Kc cell number, rep 1 | Kc cell number, rep 2 | S2R+ cell number, rep 1 | S2R+ cell number, rep 2 | Outcome |
| --- | --- | --- | --- | --- | --- | --- |
| CG9578 | 1 | 1.56e6 | 1.49e6 | 1.07e6 | 1.23e6 | inactive |
| CG17300 | 1 | 1.35e6 | 1.52e6 | 1.39e6 | 1.57e6 | inactive |
| Regnase-1 | 1 | 1.42e6 | 1.47e6 | 1.11e6 | 1.19e6 | inactive |
| DptB | 1 | 1.74e6 | 1.65e6 | 1.21e6 | 1.41e6 | inactive |
| CG9449 | 1 | 1.45e6 | 1.49e6 | 1.19e6 | 1.31e6 | inactive |
| CG15706 | 1 | 1.58e6 | 1.61e6 | 1.25e6 | 1.39e6 | inactive |
| CG8818 | 1 | 1.32e6 | 1.42e6 | 9.56e5 | 1.03e6 | inactive |
| CG12320 | 1 | 1.54e6 | 1.49e6 | 1.11e6 | 1.25e6 | inactive |
| Dic4 | 1 | 1.76e6 | 1.92e6 | 1.31e6 | 1.39e6 | inactive |
| RpL37-1 | 1 | 1.38e6 | 1.51e6 | 9.07e5 | 1.01e6 | inactive |
| CG5191 | 1 | 1.53e6 | 1.61e6 | 1.18e6 | 1.25e6 | inactive |
| CG5191 | 2 | 1.32e6 | 1.34e6 | 1.01e6 | 1.14e6 | inactive |
| B-H2 | 1 | 6.97e5 | 8.20e5 | 5.40e5 | 6.05e5 | active |
| vvl | 1 | 1.29e6 | 1.24e6 | 1.21e6 | 1.25e6 | inactive |
| CG13840 | 1 | 1.65e6 | 1.73e6 | 9.17e5 | 1.02e6 | inactive |
| CG34243 (retired record) | 1 | 1.52e6 | 1.65e6 | 1.02e6 | 1.20e6 | inactive |
| CG34243 (retired record) | 2 | 1.58e6 | 1.71e6 | 1.15e6 | 1.30e6 | inactive |
| Fum1 | 1 | 5.85e5 | – | 9.37e5 | – | inactive |
| CG7126 | 1 | 1.32e6 | 1.31e6 | 1.04e6 | 1.12e6 | inactive |
| l(1)G0289 | 1 | 6.02e5 | – | 9.81e5 | – | inactive |

Not a retest: 6 of the entries above.
| predicted target | reagent no. | Kc cell number, rep 1 | Kc cell number, rep 2 | S2R+ cell number, rep 1 | S2R+ cell number, rep 2 | Outcome |
| --- | --- | --- | --- | --- | --- | --- |
| CG8818 | 1 | 1.32e6 | 1.42e6 | 9.56e5 | 1.03e6 | inactive |
| CG12320 | 1 | 1.54e6 | 1.49e6 | 1.11e6 | 1.25e6 | inactive |
| Dic4 | 1 | 1.76e6 | 1.92e6 | 1.31e6 | 1.39e6 | inactive |
| RpL37-1 | 1 | 1.38e6 | 1.51e6 | 9.07e5 | 1.01e6 | inactive |
| CG5191 | 1 | 1.53e6 | 1.61e6 | 1.18e6 | 1.25e6 | inactive |
| CG5191 | 2 | 1.32e6 | 1.34e6 | 1.01e6 | 1.14e6 | inactive |

The list goes on.
| predicted target | reagent no. | Kc cell number, rep 1 | Kc cell number, rep 2 | S2R+ cell number, rep 1 | S2R+ cell number, rep 2 | Outcome |
| --- | --- | --- | --- | --- | --- | --- |
| Hml | 1 | 1.58e6 | 1.73e6 | 1.58e6 | 1.59e6 | inactive |
| CG12971 | 1 | 1.32e6 | 1.46e6 | 1.21e6 | 1.38e6 | inactive |
| BaraC | 1 | 6.27e5 | – | 9.18e5 | – | inactive |
| CG14632 (retired record) | 1 | 1.47e6 | 1.44e6 | 1.02e6 | 1.11e6 | inactive |
| Vhl | 1 | 1.51e6 | 1.54e6 | 1.18e6 | 1.28e6 | inactive |
| p23 | 1 | 1.56e6 | 1.59e6 | 1.22e6 | 1.30e6 | inactive |
| ND4 (retired record) | 1 | 1.87e6 | 1.86e6 | 1.18e6 | 1.36e6 | inactive |
| CG3748 | 1 | 1.68e6 | 1.86e6 | 1.34e6 | 1.54e6 | inactive |
| Sec16 | 1 | 1.63e6 | 1.50e6 | 9.77e5 | 1.09e6 | inactive |
| Sec16 | 2 | 1.60e6 | 1.51e6 | 1.08e6 | 1.14e6 | inactive |
| porin | 1 | 1.33e6 | 1.43e6 | 1.09e6 | 1.12e6 | inactive |
| CG11927 | 1 | 1.21e6 | 1.30e6 | 5.73e5 | 7.53e5 | inactive |
| CG10962 | 1 | 5.74e5 | – | 8.95e5 | – | inactive |
| CG3328 | 1 | 1.25e6 | 1.32e6 | 1.10e6 | 1.20e6 | inactive |
| Cpr49Ad | 1 | 1.56e6 | 1.56e6 | 1.19e6 | 1.33e6 | inactive |
| Set1 | 1 | 1.58e6 | 1.58e6 | 1.01e6 | 1.14e6 | inactive |
| Set1 | 2 | 1.52e6 | 1.61e6 | 9.38e5 | 1.09e6 | inactive |
| CG7137 | 1 | 1.32e6 | 1.38e6 | 1.10e6 | 1.07e6 | inactive |
| CG13699 | 1 | 1.49e6 | 1.68e6 | 1.26e6 | 1.36e6 | inactive |
| fw | 1 | 1.52e6 | 1.48e6 | 1.10e6 | 1.15e6 | inactive |
| CG5506 | 1 | 1.27e6 | 1.54e6 | 1.38e6 | 1.45e6 | inactive |
| Cdc7 | 1 | 1.72e6 | 1.78e6 | 1.08e6 | 1.19e6 | inactive |
| Cdc7 | 2 | 1.69e6 | 1.63e6 | 9.99e5 | 1.08e6 | inactive |
| Ugt307A1 | 1 | 1.79e6 | 1.81e6 | 1.37e6 | 1.47e6 | inactive |
| FASN3 | 1 | 1.52e6 | 1.53e6 | 1.11e6 | 1.24e6 | inactive |
| CG14835 | 1 | 1.50e6 | 1.39e6 | 1.19e6 | 1.26e6 | inactive |
| sls | 1 | 1.35e6 | 1.41e6 | 1.23e6 | 1.29e6 | inactive |
| sls | 2 | 1.56e6 | 1.50e6 | 9.31e5 | 1.11e6 | inactive |
| sls | 3 | 1.63e6 | 1.02e6 | 1.01e6 | 1.23e6 | inactive |
| MESK2 | 1 | 1.54e6 | 1.65e6 | 1.27e6 | 3.12e5 | inactive |
| TwdlJ | 1 | 1.60e6 | 1.66e6 | 9.63e5 | 1.20e6 | inactive |
| Mettl14 | 1 | 1.35e6 | 1.46e6 | 6.63e5 | 7.86e5 | inactive |
| mag | 1 | 1.70e6 | 1.71e6 | 1.47e6 | 1.49e6 | inactive |
| cup | 1 | 1.41e6 | 1.34e6 | 5.24e5 | 6.03e5 | inactive |
| CG3226 | 1 | 6.49e5 | – | 9.39e5 | – | inactive |
| Vm32E | 1 | 1.50e6 | 1.50e6 | 1.09e6 | 1.26e6 | inactive |
| CG34357 | 1 | 1.38e6 | 1.47e6 | 1.28e6 | 1.34e6 | inactive |
| CG34357 | 2 | 1.55e6 | 1.61e6 | 1.08e6 | 1.15e6 | inactive |
| CG34357 | 3 | 1.36e6 | 1.41e6 | 1.28e6 | 1.37e6 | inactive |
